Laboratory results: PubChem BioAssay AID686943 (Drosophila RNAi Screening Center, 2013)
Test: 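Fly genes whose loss alters ERK activation after insulin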 (primary screen). System: Drosophila S2R+ haemocyte-like cells expressing YFP-tagged ERK (Rolled). Reagent: long dsRNA against Drosophila genes. Conditions: insulin stimulation versus unstimulated cells; dose and duration not given. Measurement: 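Antibody staining for doubly phosphorylated ERK divided by ERK-YFP signal, as plate z-scores, in insulin-treated and untreated cells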. Reading the numbers: replicate 1, z-score of dpERK with insulin and replicate 2, z-score of dpERK with insulin: higher = more active ERK per ERK-YFP after insulin; replicate 1, z-score of dpERK under basal conditions: higher = more basal active ERK per ERK-YFP; replicate 1, z-score of ERK-YFP with insulin: higher = more YFP-tagged ERK signal.
The screen tested about 23,000 reagents; this is an unselected part of those with a known target gene and a result. 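Extra replicates exist only for a retested subset of genes; insulin dose and duration not given; both raised and lowered dpERK matter.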 A plus sign joins genes that one reagent is predicted to hit. Not given: the amount of reagent, the time to read-out.

| gene | amplicon | replicate 1, z-score of dpERK with insulin | replicate 2, z-score of dpERK with insulin | replicate 1, z-score of dpERK under basal conditions | replicate 1, z-score of ERK-YFP with insulin |
| --- | --- | --- | --- | --- | --- |
| Shal | DRSC09625 | -0.42 | -0.02 | 0.63 | 0.43 |
| Shal | DRSC11283 | 0.53 | -0.61 | -0.39 | -0.52 |
| dpr5 | DRSC15766 | -1.25 | 0.35 | 0.91 | 2.09 |
| CG3494 | DRSC04375 | -0.15 | 0.17 | -0.2 | 0.09 |
| mRpL2 | DRSC10896 | -0.42 | -0.5 | -0.9 | 1.18 |
| CG31459 | DRSC13380 | 1.27 | 0.58 | -0.08 | -0.37 |
| GstE13 | DRSC06083 | 0.84 | 0.82 | 0.47 | 0.35 |
| Cyp28d2 | DRSC03299 | 1.93 | -0.37 | 0.52 | -0.05 |
| Naa35 | DRSC04447 | -1.19 | -0.41 | 0.88 | -0.15 |
| Nelf-A | DRSC15903 | 0 | 0.86 | -0.27 | 0.53 |
| narya | DRSC19439 | -0.42 | 0.24 | -0.55 | 0.07 |
| IleRS-m | DRSC10506 | 0.87 | 0.47 | 0.41 | 0.35 |
| CG15167 | DRSC02468 | 0.16 | 0.12 | -1.61 | -0.55 |
| CG13643 | DRSC14641 | -0.35 | 0 | 0.54 | 0.45 |
| CG13643 | DRSC14642 | 0.17 | -0.17 | 0.25 | -0.49 |
| Or43a | DRSC07485 | 0.86 | -1 | 0.34 | -0.71 |
| Elk | DRSC07608 | -0.76 | 0.34 | 0.35 | 0.73 |
| SLC22A | DRSC11826 | -0.11 | -0.22 | 0.36 | 0.05 |
| SLC22A | DRSC11827 | 0.72 | 0.22 | -0.64 | 0.44 |
| CG33258 | DRSC09415 | 0.17 | 0.69 | 0.77 | -0.03 |
| Atg13 | DRSC16228 | 0.18 | -0.37 | 0.15 | 0.66 |
| Pu | DRSC04645 | -0.72 | -0.9 | 0.48 | -0.58 |
| Hsp70Bb + Hsp70Bbb | DRSC15885 | 1.13 | -0.11 | 0.09 | 0.25 |
| CG32100 | DRSC09725 | -0.27 | -0.5 | -0.49 | 1.9 |
| CG32100 | DRSC10331 | 1.05 | 0.55 | 1.28 | 0.04 |
| Mst98Ca | DRSC16749 | 0.37 | 0.69 | -0.11 | 1.03 |
| CG15141 | DRSC02441 | 0.29 | 0.31 | -0.1 | -1.17 |
| CG15141 | DRSC02442 | 0.68 | 0.53 | 0.29 | 0.05 |
| MRG15 | DRSC16731 | 0.32 | 0.24 | -0.69 | -0.01 |
| Ppcs | DRSC14127 | 0.29 | -0.08 | -0.53 | -0.3 |
| CG9308 | DRSC04539 | 0.04 | -0.12 | 0.37 | 0.37 |
| meep | DRSC07948 | -0.65 | 0.6 | 1.45 | -0.28 |
| CG18809 | DRSC19818 | -1.61 | -1.1 | -1.04 | 1 |
| CG42714 | DRSC08798 | -0.8 | -0.67 | -0.79 | -0.41 |
| CG42505 + CG42504 + CG31358 | DRSC15235 | 1.7 | 0.14 | -0.18 | 0.69 |
| CG42505 + CG42504 + CG31358 | DRSC15308 | 2.15 | 0.7 | 0.82 | 0.14 |
| CG42505 + CG42504 + CG31358 | DRSC15309 | 0.2 | 0.42 | -0.5 | 0.94 |
| RhoGAP92B | DRSC14507 | -0.42 | 0.55 | -0.92 | 0.23 |
| RhoGAP92B | DRSC15637 | -0.15 | -0.13 | -1.85 | -0.11 |
